Data as given in PubChem BioAssay AID1224830 (NIAID, 2016).

- Screen: 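Host factors that control LPS-induced TNF expression in human macrophages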 (primary screen)
- Cells: human THP-1 monocytic leukaemia cells, TNF dual-luciferase reporter clone, PMA-differentiated to macrophage-like cells
- Knock-down reagent: siRNA pool against human genes, 50 nM
- Timing: LPS for 4 h, given about 3 days after siRNA transfection
- Treatment: bacterial LPS (TLR4 ligand), 10 ng/ml
- Read-out: 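Ratio of firefly to renilla light, scaled to the plate median and expressed as a robust z-score per replicate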
- Direction: TNF reporter robust z-score: higher = stronger TNF reporter response to LPS
- Hit rule: 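a well is active when its z-score exceeds 2.8 or falls below -1.5; control wells carry no call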
The whole screen tested about 18,000 reagents; this is an unselected part. Of all reagents, about 2,900 (16%) got an active call. 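Calls are made per well; low scores hint the gene aids the LPS response, high scores that it dampens it.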 Repeated entries: four replicate wells of each siRNA pool. No sequences are given here.

Gene | PubChem SID | TNF reporter robust z-score | call
SDK2 | SID315457075 | -1.01 | inactive
SDK2 | SID315457075 | -1.63 | active
SDK2 | SID315457075 | -1.83 | active
SDK2 | SID315457075 | -0.89 | inactive
OR52R1 | SID315461478 | 0.64 | inactive
OR52R1 | SID315461478 | 0.22 | inactive
OR52R1 | SID315461478 | 0.29 | inactive
OR52R1 | SID315461478 | 0.41 | inactive
FAM218A | SID315462542 | 1.65 | inactive
FAM218A | SID315462542 | -0.18 | inactive
FAM218A | SID315462542 | 0.52 | inactive
FAM218A | SID315462542 | 0.83 | inactive
GCOM1 | SID315462257 | 0.41 | inactive
GCOM1 | SID315462257 | -0.54 | inactive
GCOM1 | SID315462257 | -0.03 | inactive
GCOM1 | SID315462257 | -0.51 | inactive
UGT2B11 | SID315454312 | 1.25 | inactive
UGT2B11 | SID315454312 | 0.58 | inactive
UGT2B11 | SID315454312 | -0.35 | inactive
UGT2B11 | SID315454312 | 0.87 | inactive
TRIM45 | SID315459726 | -0.6 | inactive
TRIM45 | SID315459726 | -0.9 | inactive
TRIM45 | SID315459726 | -1.43 | inactive
TRIM45 | SID315459726 | 1.03 | inactive
CD8A | SID315447766 | 0.85 | inactive
CD8A | SID315447766 | 2.25 | inactive
CD8A | SID315447766 | 1.45 | inactive
CD8A | SID315447766 | 1.06 | inactive
AGGF1 | SID315457412 | 1.52 | inactive
AGGF1 | SID315457412 | 0.38 | inactive
AGGF1 | SID315457412 | 0.29 | inactive
AGGF1 | SID315457412 | 2.56 | inactive
PRKCB | SID315450803 | 1.17 | inactive
PRKCB | SID315450803 | 1.41 | inactive
PRKCB | SID315450803 | 2.85 | active
PRKCB | SID315450803 | 1.26 | inactive
SRPX2 | SID315456006 | -0.58 | inactive
SRPX2 | SID315456006 | 0.55 | inactive
SRPX2 | SID315456006 | -0.34 | inactive
BCL2L13 | SID315455432 | 0.19 | inactive
BCL2L13 | SID315455432 | 0.87 | inactive
BCL2L13 | SID315455432 | -0.46 | inactive
BCL2L13 | SID315455432 | 0.99 | inactive
ZNF165 | SID315452262 | 2.53 | inactive
ZNF165 | SID315452262 | -0.07 | inactive
ZNF165 | SID315452262 | -0.67 | inactive
ZNF165 | SID315452262 | 0.71 | inactive
MAN2A2 | SID315449871 | -0.13 | inactive
MAN2A2 | SID315449871 | -0.1 | inactive
MAN2A2 | SID315449871 | 0.31 | inactive
MAN2A2 | SID315449871 | 0.06 | inactive
DMTF1 | SID315453731 | -0.12 | inactive
DMTF1 | SID315453731 | 0.19 | inactive
DMTF1 | SID315453731 | -0.86 | inactive
DMTF1 | SID315453731 | 0.82 | inactive
GKAP1 | SID315459749 | 1.9 | inactive
GKAP1 | SID315459749 | 2.73 | inactive
GKAP1 | SID315459749 | 0.1 | inactive
GKAP1 | SID315459749 | 2.62 | inactive
NRIP2 | SID315460067 | -0.4 | inactive
NRIP2 | SID315460067 | 1.12 | inactive
NRIP2 | SID315460067 | 1.32 | inactive
NRIP2 | SID315460067 | 0.71 | inactive
BLCAP | SID315454442 | 0.47 | inactive
BLCAP | SID315454442 | 1.27 | inactive
BLCAP | SID315454442 | -0.05 | inactive
BLCAP | SID315454442 | 1.24 | inactive
TRIM51BP | SID315464725 | -0.74 | inactive
TRIM51BP | SID315464725 | -1.03 | inactive
TRIM51BP | SID315464725 | 0.82 | inactive
TRIM51BP | SID315464725 | -0.4 | inactive
NDST3 | SID315453215 | -0.47 | inactive
NDST3 | SID315453215 | 4.71 | active
NDST3 | SID315453215 | 0.25 | inactive
NDST3 | SID315453215 | 1.13 | inactive
KEAP1 | SID315453590 | 0.31 | inactive
KEAP1 | SID315453590 | -0.47 | inactive
KEAP1 | SID315453590 | -0.52 | inactive
KEAP1 | SID315453590 | -0.18 | inactive
PCK1 | SID315450450 | -1.68 | active
PCK1 | SID315450450 | 0.92 | inactive
PCK1 | SID315450450 | 0.55 | inactive
PCK1 | SID315450450 | 2.02 | inactive
VPS25 | SID315460322 | 2.43 | inactive
VPS25 | SID315460322 | 4.78 | active
VPS25 | SID315460322 | 2.8 | active
VPS25 | SID315460322 | 3.24 | active
SNX2 | SID315451569 | -0.17 | inactive
SNX2 | SID315451569 | 0.28 | inactive
SNX2 | SID315451569 | 1.56 | inactive
SNX2 | SID315451569 | 1.29 | inactive
HOATZ | SID315464729 | -0.52 | inactive
HOATZ | SID315464729 | -0.55 | inactive
HOATZ | SID315464729 | -0.76 | inactive
HOATZ | SID315464729 | -0.57 | inactive
ILDR2 | SID315464440 | 0.58 | inactive
ILDR2 | SID315464440 | 1.29 | inactive
ILDR2 | SID315464440 | 0.29 | inactive
ILDR2 | SID315464440 | -0.22 | inactive
MRNIP | SID315456512 | 0.04 | inactive
MRNIP | SID315456512 | 0.16 | inactive
MRNIP | SID315456512 | -0.75 | inactive
MRNIP | SID315456512 | -0.74 | inactive
OR10A4 | SID315463656 | 1 | inactive
OR10A4 | SID315463656 | 0.07 | inactive
OR10A4 | SID315463656 | -0.99 | inactive
OR10A4 | SID315463656 | -1.01 | inactive
PARD3B | SID315461431 | -0.39 | inactive
PARD3B | SID315461431 | -0.36 | inactive
PARD3B | SID315461431 | -0.52 | inactive
PARD3B | SID315461431 | 0.84 | inactive
